From PMC6597547

By UniProt entry, the sequences of proteins in these tests, tags left out. Residues count along the entry.
UniProt Q9FI56, residues 39-929: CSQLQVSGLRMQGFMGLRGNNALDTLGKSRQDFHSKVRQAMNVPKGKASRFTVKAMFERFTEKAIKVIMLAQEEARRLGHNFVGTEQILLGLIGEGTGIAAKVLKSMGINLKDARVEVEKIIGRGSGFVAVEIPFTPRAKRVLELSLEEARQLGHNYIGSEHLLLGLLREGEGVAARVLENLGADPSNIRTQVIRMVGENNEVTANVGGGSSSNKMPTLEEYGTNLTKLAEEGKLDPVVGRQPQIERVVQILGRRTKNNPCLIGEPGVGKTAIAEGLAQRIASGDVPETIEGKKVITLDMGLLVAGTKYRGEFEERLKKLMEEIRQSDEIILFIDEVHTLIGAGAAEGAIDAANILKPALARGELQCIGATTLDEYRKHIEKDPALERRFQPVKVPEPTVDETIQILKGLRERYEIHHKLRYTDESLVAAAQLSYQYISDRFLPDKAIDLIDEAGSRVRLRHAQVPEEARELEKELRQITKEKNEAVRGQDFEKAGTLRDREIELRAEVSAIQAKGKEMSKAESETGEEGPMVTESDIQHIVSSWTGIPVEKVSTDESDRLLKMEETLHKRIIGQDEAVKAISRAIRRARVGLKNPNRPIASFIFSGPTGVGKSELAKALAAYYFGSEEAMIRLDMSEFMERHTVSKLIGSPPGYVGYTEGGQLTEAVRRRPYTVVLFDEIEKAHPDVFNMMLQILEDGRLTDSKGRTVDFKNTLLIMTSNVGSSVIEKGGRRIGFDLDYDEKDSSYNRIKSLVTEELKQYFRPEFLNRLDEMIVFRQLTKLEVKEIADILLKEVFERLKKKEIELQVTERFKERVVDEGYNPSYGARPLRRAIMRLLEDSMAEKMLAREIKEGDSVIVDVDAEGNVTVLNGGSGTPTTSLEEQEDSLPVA

The substances below were run against T1, EXECUTER1 (EX1) fused to GFP (Arabidopsis thaliana) (UniProt Q93YW0) (assay: affinity purification with mass spectrometry; GFP-Trap enriched EX1-GFP and associated proteins from dark- or continuous-light-grown seedlings; eluted with 6 M guanidine hydrochloride, trypsin digest, LC-MS/MS (Q Exactive), Mascot search).
T1 sequence: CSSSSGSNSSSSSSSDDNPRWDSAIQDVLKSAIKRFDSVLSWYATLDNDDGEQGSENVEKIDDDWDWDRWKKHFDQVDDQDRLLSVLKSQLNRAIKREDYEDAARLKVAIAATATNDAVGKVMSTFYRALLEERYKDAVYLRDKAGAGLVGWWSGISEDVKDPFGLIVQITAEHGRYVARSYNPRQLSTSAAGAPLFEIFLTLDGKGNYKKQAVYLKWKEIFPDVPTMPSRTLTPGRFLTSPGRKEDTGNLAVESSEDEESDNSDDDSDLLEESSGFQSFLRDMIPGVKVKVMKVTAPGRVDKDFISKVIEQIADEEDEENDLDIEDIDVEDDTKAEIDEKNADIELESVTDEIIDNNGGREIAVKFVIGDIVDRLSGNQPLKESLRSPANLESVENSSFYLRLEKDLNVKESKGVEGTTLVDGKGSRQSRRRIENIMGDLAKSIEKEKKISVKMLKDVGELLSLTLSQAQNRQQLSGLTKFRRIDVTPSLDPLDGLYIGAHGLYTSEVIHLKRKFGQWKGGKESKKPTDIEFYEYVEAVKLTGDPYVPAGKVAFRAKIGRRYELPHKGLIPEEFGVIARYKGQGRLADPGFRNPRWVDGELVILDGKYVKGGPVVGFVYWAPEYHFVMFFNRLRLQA

Substance | binding
Hsp70 | binds
ClpC1 (from UniProt Q9FI56 39-929) | binds
light-dependent NADPH:protochlorophyllide oxidoreductase (POR) (enzyme) | binds

No constants are given. Whether binding was seen depends on the method and setting. In cells and extracts the contact can be indirect. These calls come from enrichment with a bait or labelling near it, and not all partners need be listed. Sequences can lack the tags named with a protein.
